From ChEMBL document CHEMBL3988442, “University of Dundee, Small-Polar-MMV Screening Library” (2021).

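Viability assay of Plasmodium falciparum sporozoites; the read-out is not stated. The concentration is filed as 10 mM, unlikely as a test dose, so the dose is not known. Direction is inferred from retests: higher values go with lower viability. Strong results were mostly tested again. Size under these conditions: about 34,000 compounds, about 280 of them at 50% or above in at least one test.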

The filed quantity is “Percent Effect” (%). The controls that fix the scale are not given in the record; negative values are as filed. The compounds are a random part of those screened. Two or more numbers in one place are separate tests of the same structure; such repeats can differ widely.

With CC(=O)N1CCCC1c1nccnc1Nc1cccc(C)n1 (centres unmarked) the screen gave -26.18%.
With Cc1ccn(-c2ccc(C(=O)N3CCCC(C(N)=O)C3)cc2)n1 (centres unmarked) the screen gave 1.727%.
With Cc1nnc(CN2CCC3(CCC(=O)N(C4CC4)C3)CC2)o1 the screen gave -33.9% & -42.59%.
With CCn1cnnc1C1CCN(C(=O)c2cc(C)n(CC)c2C)CC1 the screen gave 5.27%.
With O=C(NCc1nnc2n1CCCCC2)N1CCc2ccccc2C1 the screen gave 1.418%.
With [H][C@]12CC[C@@]3(N=C(CC)N(C)C3=O)[C@@]1([H])CN(S(=O)(=O)CC(C)C)C2 the screen gave -3.464%.
With O=C(NCC1CC1)c1nc(COc2ccc3c(c2)OCO3)no1 the screen gave 8.772%.
With CCN1CCN(C(=O)NCc2cccnc2-n2cccn2)CC1 the screen gave 6.638%.
With COc1nn(C)c2c1CCCN(C(=O)c1cnccn1)C2 the screen gave 15.32%.
With Cc1cccc(C)c1Nc1noc2c1CN(C(=O)c1cn(C)cn1)CC2 the screen gave 5.326%.
With COCCN1CCN(Cc2noc(C3CC3)n2)CC1C (centres unmarked) the screen gave 9.622%.
With CC(=O)N1CCCC(c2ccc(CO)c(-c3c(C)noc3C)n2)C1 (centres unmarked) the screen gave 7.483%.
With O=C(Cc1cn2ccsc2n1)N1CCOCC(O)(CN2CCCC2)C1 (centres unmarked) the screen gave 5.805%.
With COc1ccc(CCNC(=O)N2CCCC(c3nncn3C)C2)cc1 (centres unmarked) the screen gave 3.648%.
With CC(=O)N1N=C(c2ccco2)OC1C(=O)NCCc1ccc(O)cc1 (centres unmarked) the screen gave -0.7028%.
With Cc1oncc1C(=O)NCc1cc(=O)n2c(n1)CN(CC1CC1)CCC2.O=C(O)C(F)(F)F the screen gave -10.02%.
With O=C(c1cccc(N2CCCC2=O)c1)N1CCCC(n2cccn2)C1 (centres unmarked) the screen gave 4.982%.
With O=C(c1ccc2cc[nH]c2c1)N1CCC(Nc2cccnn2)CC1 the screen gave 5.465%.
With Cc1cc(NCCNc2cccnc2)nc(N)n1 the screen gave -178.8%.
With Cc1nn(C)c(N(C)C)c1CNC1CCc2c(Cl)cccc21.Cl (centres unmarked) the screen gave -0.4303%.
With CC(C)n1c(C2CCCN(Cc3ccnn3C)C2)nc2ccccc21 (centres unmarked) the screen gave -9.112%.
With COCCOc1ccc(NC(=O)C2CC(=O)N(C(C)C)C2)cn1 (centres unmarked) the screen gave 10.82%.
With CCC(=O)N1CCC(c2nc(N3CCOCC3)ncc2S(C)(=O)=O)CC1 the screen gave 1.776%.
With CCN(CCCNCc1c(C)nn(C)c1N(C)C)S(C)(=O)=O the screen gave 12.73%.
With CC1CCN(CC(O)CNc2ccc(Cl)cn2)CC1 (centres unmarked) the screen gave -6.104%.
With Cc1ncc(C(=O)NCCNc2ncccc2C#N)s1 the screen gave 19.38%.
With CC[C@@H]1N(Cc2ccsc2)CCC[C@]12CCC(=O)N2C.O=C(O)C(F)(F)F the screen gave 15.72%.
With Fc1ccc(-c2nc(CNC3CCc4ncnn4C3)cs2)cc1 (centres unmarked) the screen gave -0.8792%.
With O=C1CN(C(=O)[C@H]2CC[C@]3(CC2)CNC(=O)c2ccccc2O3)CCN1 the screen gave 5.64%.
With O=C(CCc1cccnc1)N1CCC2(CCN(CC3CCCC3)C2)C1.O=C(O)C(F)(F)F.O=C(O)C(F)(F)F (centres unmarked) the screen gave 4.579%.
With CC(C)c1nc(C2CCCN(C(=O)CCCn3cccn3)C2)no1 (centres unmarked) the screen gave 0.5114%.
With COc1ccccc1Cc1cncc(N2CC(C(=O)O)C2)n1.Cl the screen gave -1.838%.
With CC(C)Nc1cc(-c2c[nH]nc2C2CCN(C(=O)C3CCC3)C2)ccn1 (centres unmarked) the screen gave 7.093%.
With O=C(O)C(F)(F)F.[H][C@@]12CC(COCc3ccccn3)C[C@@]1([H])N(C(=O)c1ccno1)CCO2 (some centres unmarked) the screen gave 3.713%.
With Cc1ccccc1CN1CCC(NCC2CNc3ccnn3C2)CC1 (centres unmarked) the screen gave -3.691%.
With N#Cc1ccc(N2CCCN(CC(=O)N3CCNC(=O)C3)CC2)cc1 the screen gave 16.8%.
With Cc1ncc(CN2CCN(c3ccc4nncn4n3)C(C)C2)s1 (centres unmarked) the screen gave 3.253%.
With COc1ccc(C(O)CNc2c(C#N)c(=O)n(C)c(=O)n2C)cc1 (centres unmarked) the screen gave 1.398%.
With CC(C)CN1CCc2[nH]cnc2C12CCN(C(=O)c1cccnc1)CC2 the screen gave 0%.
With CN(C)CC(=O)N1Cc2ncn(C)c2C(COCC2CCOCC2)C1 (centres unmarked) the screen gave 12.29%.
With Cc1cc2c(cc1Cl)C=CC1(CCN(CC(=O)N3CCOCC3)CC1)O2 the screen gave 11.92%.
With COc1ccc2c(c1)c(-c1nc(N(C)C)ncc1CN)cn2C the screen gave 23.78%.
With O=C(c1ncccc1O)N1CCc2c(ncnc2N2CCOCC2)C1 the screen gave -25.61% & -20.1%.
With CN(C)S(=O)(=O)N1CCCC1CC(=O)c1cccs1 (centres unmarked) the screen gave -9.294%.
With Cc1ccoc1-c1nnc(CN2CCCC(Cn3cncn3)C2)o1 (centres unmarked) the screen gave 10.79%.
With O=S1(=O)NC(c2ccnc(N3CCOCC3)n2)=Nc2ccccc21 the screen gave -4.537%.
With CC(C)c1ccc(C(CN)N2CCc3sccc3C2)cc1 (centres unmarked) the screen gave 2.417%.
With Cc1cc(N2CCN(C(=O)c3cc(Cl)c[nH]3)CC2)nc(N)n1 the screen gave 6.455%.
With Cc1noc(-c2ccnc(Oc3ccc(CN4CCCC4)cc3F)c2)n1 the screen gave -9.077%.
With CCCOC(=O)N1CCCC(c2nnc(CN3CCOCC3)n2C)C1 (centres unmarked) the screen gave 0.1103%.
With NC(=O)[C@H]1CCCN(c2nccc(-c3ccncc3)n2)C1 the screen gave -5.165%.

Once more, the final 4:

{"structure": "Cc1cc(N2CCN(C(=O)c3cc(Cl)c[nH]3)CC2)nc(N)n1", "percent effect": 6.455}
{"structure": "Cc1noc(-c2ccnc(Oc3ccc(CN4CCCC4)cc3F)c2)n1", "percent effect": -9.077}
{"structure": "CCCOC(=O)N1CCCC(c2nnc(CN3CCOCC3)n2C)C1", "stereo": "centres unmarked", "percent effect": 0.1103}
{"structure": "NC(=O)[C@H]1CCCN(c2nccc(-c3ccncc3)n2)C1", "percent effect": -5.165}